Experimental findings from paper PMC8751613 are described below.

The chains behind the UniProt entries cited, without tags or fusion partners.
UniProt P29350: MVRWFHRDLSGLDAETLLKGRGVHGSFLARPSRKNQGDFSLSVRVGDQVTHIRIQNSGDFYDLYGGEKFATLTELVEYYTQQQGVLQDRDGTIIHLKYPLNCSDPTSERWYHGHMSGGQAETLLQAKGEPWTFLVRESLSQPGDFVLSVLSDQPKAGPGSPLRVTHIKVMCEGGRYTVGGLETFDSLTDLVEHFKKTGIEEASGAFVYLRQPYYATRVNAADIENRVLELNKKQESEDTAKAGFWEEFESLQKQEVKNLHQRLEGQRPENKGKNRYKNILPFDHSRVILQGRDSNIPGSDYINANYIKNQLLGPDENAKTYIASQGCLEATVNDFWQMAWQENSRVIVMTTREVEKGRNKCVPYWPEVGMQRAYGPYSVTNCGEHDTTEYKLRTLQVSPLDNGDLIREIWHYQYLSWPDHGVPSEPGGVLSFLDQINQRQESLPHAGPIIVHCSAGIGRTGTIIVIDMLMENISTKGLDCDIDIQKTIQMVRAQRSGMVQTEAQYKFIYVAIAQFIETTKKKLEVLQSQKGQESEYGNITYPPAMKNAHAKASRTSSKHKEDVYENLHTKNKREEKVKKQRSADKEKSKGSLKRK
UniProt P49841: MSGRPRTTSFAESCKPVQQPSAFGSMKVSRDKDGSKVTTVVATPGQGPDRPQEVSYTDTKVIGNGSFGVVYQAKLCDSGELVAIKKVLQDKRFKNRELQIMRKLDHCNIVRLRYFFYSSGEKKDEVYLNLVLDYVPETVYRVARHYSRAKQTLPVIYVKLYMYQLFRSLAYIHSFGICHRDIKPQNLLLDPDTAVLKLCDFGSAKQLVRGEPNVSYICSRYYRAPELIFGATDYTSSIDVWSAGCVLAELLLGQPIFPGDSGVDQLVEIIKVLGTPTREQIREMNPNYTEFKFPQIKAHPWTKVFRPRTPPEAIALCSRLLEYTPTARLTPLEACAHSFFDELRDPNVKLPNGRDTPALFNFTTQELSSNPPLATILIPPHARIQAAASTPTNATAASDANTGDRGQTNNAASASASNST

These are yes or no findings as the source states them, for the method shown. Binding seen in cells or lysates may run through a third protein. Some entries that bind do so weakly or less than the wild type.

This test has as its target PTPN6 (human (endogenous in BMSCs)) (UniProt P29350). The experiment in a line: co-IP; total protein lysate of BMSCs (IP-lysis buffer) mixed with anti-PTPN6 antibody or anti-IgG antibody and protein A/G Dynabeads at 4°C overnight; beads washed three times; immunoprecipitates subjected to western blotting.

Turning to GSK-3β (from UniProt P49841 1-420), the binding result is reported as “binds”.
